log2 fold change data for 28 targets are collected here from the supplement of paper PMC12819154, “High-throughput peptide-centric local stability assay extends protein–ligand identification to membrane proteins, tissues and bacteria” (Nature Structural & Molecular Biology, 2025).

Chains of the proteins cited; added tags and fusions are not shown. Lines headed by an entry give the natural chain unless they say otherwise; changes in a name come on top.
UniProt Q8WXE0: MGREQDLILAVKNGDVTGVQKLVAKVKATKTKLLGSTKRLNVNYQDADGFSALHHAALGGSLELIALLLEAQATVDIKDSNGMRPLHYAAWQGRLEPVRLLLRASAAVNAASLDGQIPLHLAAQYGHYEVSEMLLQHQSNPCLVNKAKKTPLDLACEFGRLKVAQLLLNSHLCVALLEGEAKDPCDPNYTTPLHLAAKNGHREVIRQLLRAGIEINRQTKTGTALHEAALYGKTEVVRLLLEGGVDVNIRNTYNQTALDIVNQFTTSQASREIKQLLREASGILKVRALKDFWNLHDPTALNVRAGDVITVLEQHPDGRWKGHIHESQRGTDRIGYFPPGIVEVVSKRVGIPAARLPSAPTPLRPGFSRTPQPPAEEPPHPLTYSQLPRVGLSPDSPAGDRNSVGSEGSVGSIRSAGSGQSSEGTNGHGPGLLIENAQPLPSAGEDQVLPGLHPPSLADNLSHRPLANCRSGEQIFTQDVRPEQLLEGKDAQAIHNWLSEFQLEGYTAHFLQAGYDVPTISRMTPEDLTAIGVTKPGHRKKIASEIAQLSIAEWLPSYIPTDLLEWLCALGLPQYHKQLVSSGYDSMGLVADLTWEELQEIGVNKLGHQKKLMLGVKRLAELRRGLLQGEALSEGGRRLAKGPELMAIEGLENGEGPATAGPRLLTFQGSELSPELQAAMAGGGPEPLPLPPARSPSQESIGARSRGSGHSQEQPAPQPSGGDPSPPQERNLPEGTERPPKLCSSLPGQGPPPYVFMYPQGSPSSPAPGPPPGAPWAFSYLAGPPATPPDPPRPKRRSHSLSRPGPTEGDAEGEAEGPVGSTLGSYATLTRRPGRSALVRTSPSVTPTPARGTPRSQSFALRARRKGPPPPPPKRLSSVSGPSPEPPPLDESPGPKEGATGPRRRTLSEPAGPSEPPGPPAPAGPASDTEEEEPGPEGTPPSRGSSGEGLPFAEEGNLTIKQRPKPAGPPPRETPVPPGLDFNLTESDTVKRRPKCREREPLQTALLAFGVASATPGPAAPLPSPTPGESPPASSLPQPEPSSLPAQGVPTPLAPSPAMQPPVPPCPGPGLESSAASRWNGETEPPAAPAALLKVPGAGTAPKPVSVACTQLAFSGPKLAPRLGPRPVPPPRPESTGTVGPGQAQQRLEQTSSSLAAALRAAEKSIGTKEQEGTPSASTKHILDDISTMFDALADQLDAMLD
UniProt Q8TAK5: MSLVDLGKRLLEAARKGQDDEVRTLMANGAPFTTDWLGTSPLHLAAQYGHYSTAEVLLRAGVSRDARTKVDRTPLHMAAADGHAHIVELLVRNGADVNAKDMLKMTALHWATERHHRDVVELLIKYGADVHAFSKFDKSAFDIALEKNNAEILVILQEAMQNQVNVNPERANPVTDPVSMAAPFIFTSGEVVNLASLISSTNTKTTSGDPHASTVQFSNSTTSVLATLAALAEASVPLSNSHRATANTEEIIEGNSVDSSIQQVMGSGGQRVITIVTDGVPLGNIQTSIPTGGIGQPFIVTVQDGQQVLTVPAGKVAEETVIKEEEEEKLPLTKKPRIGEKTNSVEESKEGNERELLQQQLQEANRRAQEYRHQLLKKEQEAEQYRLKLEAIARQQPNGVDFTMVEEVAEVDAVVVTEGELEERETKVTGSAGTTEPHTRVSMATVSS
UniProt Q8WUF5: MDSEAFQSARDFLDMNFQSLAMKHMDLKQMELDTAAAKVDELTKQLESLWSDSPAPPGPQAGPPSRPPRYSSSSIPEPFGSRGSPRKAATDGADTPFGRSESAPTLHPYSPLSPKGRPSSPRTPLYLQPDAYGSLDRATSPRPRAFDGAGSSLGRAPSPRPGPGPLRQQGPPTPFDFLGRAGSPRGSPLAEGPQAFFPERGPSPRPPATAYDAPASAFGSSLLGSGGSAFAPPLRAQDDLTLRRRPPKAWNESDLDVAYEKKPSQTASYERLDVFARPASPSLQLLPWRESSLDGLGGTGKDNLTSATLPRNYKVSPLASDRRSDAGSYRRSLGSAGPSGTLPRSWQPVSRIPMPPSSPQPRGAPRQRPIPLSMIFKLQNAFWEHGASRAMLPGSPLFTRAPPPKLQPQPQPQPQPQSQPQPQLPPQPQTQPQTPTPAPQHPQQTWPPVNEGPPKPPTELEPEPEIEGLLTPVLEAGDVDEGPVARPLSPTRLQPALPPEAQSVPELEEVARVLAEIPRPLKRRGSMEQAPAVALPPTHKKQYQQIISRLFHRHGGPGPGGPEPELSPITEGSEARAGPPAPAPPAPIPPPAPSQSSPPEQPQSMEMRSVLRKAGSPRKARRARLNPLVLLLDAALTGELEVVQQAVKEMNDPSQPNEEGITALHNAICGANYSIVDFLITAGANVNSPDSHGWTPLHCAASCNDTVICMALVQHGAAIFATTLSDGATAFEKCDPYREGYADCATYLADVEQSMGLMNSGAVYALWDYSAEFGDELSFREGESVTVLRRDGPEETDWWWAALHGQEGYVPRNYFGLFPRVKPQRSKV
UniProt Q8WVN8: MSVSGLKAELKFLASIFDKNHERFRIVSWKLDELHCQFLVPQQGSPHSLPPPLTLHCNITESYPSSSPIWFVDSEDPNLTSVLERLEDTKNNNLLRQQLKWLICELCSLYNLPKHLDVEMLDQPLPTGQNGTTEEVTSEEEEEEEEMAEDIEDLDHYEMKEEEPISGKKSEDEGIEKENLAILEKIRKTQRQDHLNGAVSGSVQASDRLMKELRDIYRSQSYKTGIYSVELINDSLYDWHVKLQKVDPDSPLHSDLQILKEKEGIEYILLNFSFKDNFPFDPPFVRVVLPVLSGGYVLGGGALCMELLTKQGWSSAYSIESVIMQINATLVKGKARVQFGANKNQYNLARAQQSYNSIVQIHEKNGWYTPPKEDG
UniProt Q92608: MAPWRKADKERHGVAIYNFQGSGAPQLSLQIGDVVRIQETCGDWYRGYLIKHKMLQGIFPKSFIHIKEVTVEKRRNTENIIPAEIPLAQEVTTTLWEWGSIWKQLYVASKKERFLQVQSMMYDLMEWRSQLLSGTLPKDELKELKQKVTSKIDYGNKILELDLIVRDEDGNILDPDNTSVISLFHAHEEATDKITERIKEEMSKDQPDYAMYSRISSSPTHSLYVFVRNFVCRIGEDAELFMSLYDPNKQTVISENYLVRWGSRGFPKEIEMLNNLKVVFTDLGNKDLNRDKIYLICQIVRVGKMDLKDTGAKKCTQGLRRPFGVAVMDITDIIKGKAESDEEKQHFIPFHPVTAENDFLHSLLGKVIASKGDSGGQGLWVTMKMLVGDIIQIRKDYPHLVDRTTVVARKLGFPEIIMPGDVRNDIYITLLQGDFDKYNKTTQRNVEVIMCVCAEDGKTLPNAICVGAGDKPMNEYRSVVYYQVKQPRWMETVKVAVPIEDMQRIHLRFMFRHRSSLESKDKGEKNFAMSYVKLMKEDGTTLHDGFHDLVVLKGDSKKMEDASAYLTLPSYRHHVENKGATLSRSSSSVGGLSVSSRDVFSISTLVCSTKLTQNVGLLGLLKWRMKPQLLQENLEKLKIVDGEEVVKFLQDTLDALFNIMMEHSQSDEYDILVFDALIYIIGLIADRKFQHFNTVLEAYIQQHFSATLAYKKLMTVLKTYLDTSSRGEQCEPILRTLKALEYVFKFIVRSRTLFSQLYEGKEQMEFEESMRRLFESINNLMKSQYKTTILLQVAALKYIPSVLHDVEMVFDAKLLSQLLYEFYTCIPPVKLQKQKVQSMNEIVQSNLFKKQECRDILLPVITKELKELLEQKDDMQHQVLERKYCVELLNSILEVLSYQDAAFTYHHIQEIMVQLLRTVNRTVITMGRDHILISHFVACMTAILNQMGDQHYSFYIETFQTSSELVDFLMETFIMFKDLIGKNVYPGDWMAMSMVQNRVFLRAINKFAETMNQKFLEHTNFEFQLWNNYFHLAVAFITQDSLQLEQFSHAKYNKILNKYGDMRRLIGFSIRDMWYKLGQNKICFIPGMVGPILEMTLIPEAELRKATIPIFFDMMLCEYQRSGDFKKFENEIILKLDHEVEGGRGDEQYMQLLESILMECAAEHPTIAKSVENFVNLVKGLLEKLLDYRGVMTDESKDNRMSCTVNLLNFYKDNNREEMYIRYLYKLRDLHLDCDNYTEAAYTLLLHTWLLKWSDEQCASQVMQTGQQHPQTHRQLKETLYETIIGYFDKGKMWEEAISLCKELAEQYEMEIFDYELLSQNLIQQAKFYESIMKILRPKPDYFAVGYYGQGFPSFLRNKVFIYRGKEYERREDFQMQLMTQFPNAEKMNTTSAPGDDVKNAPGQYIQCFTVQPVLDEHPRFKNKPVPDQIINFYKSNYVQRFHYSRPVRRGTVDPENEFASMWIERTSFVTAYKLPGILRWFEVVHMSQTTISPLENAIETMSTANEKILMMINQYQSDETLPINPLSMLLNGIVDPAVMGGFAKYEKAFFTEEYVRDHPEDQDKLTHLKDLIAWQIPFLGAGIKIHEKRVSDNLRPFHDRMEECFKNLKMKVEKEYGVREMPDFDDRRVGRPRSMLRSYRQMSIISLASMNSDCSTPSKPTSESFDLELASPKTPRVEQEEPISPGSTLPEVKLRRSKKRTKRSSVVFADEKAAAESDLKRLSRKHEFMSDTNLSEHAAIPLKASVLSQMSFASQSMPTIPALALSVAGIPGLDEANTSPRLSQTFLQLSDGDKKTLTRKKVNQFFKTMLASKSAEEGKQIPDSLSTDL
UniProt Q8TAT5: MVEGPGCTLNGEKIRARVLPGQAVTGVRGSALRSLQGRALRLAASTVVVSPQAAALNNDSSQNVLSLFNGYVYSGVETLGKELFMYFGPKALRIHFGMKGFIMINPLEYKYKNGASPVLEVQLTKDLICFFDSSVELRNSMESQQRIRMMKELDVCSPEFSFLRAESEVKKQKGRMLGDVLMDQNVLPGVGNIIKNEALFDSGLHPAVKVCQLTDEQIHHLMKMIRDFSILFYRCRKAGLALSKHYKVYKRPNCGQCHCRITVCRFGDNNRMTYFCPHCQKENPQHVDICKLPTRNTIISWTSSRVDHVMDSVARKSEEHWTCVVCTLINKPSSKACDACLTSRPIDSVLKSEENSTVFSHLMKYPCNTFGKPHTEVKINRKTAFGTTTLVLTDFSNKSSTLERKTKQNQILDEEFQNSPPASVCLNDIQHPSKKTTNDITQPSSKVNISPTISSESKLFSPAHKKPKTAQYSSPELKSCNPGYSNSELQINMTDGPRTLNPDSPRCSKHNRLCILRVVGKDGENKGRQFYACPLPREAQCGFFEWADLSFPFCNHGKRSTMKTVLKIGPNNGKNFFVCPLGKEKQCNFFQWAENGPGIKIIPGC
UniProt Q8TDB8: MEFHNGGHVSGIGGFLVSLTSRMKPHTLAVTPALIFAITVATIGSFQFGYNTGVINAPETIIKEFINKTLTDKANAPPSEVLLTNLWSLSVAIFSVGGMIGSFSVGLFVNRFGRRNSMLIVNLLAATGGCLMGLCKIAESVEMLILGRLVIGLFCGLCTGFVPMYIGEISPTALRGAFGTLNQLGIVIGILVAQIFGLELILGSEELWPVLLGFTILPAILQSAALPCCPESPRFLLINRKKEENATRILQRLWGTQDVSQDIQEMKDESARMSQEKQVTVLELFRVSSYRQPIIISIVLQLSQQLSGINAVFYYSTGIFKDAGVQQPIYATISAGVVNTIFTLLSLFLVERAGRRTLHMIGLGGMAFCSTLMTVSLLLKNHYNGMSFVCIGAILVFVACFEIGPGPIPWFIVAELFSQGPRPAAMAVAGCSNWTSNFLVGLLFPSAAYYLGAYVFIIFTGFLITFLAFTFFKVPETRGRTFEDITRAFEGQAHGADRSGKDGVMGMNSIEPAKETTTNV
UniProt Q8TD31: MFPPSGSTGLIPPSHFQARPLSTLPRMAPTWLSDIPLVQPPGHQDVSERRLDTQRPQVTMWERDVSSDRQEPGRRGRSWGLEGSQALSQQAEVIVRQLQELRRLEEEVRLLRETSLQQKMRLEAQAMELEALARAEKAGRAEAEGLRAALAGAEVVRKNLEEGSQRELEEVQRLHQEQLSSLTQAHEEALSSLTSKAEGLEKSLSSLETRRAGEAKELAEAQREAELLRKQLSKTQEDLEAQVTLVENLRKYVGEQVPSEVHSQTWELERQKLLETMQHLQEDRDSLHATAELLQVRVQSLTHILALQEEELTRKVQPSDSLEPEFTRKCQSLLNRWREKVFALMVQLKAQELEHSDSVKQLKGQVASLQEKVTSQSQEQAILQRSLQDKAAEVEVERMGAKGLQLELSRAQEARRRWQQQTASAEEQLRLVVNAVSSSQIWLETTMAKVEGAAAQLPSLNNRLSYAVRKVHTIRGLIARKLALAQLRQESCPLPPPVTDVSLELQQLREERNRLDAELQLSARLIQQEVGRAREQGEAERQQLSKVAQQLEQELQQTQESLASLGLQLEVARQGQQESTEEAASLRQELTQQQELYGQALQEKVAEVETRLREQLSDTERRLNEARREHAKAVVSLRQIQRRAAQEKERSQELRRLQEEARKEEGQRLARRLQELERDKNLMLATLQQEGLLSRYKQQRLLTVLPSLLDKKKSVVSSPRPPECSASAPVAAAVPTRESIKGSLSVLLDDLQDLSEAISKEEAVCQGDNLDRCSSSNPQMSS

The list shows a part of the results. Small differences around the control level are noise.

Compound in this experiment: Cc1nc(Nc2ncc(C(=O)Nc3c(C)cccc3Cl)s2)cc(N2CCN(CCO)CC2)n1 [dasatinib]
Put plainly: log2 fold change of tryptic peptide abundance, ligand vs vehicle (limited proteolysis) (log2 ratio); higher = more trypsin-susceptible (destabilized). As to conditions: ligand concentration: 5 uM; sample: K562 cleared lysate.
On to “GOLGA5 (peptide sequence: TPVEASHPVENASVPR, peptide start residue: 90) (UniProt Q8TBA6)”, for which the log2 fold change was -0.677. The figure for “CHD5 (peptide sequence: ESLAGNKPANAVLHK, peptide start residue: 1849) (UniProt Q8TDI0)” is 0.0194; for “UniProt Q8WVV9 (peptide sequence: NDNDSWDYTKPYLGRR, peptide start residue: 252)” it is -0.975. With “CASKIN2 (peptide sequence: VGLSPDSPAGDR, peptide start residue: 390) (UniProt Q8WXE0)”, the log2 fold change is -0.19. The value for “GABPB2 (peptide sequence: VTGSAGTTEPHTR, peptide start residue: 428) (UniProt Q8TAK5)” was -0.13; that for “PPP1R13L (peptide sequence: AMLPGSPLFTR, peptide start residue: 390) (UniProt Q8WUF5)” was -0.283; that for “IPO4 (peptide sequence: ILCCLTFLVK, peptide start residue: 267) (UniProt Q8TEX9)” was -0.452. Regarding “THAP4 (peptide sequence: SQVCCLREQVEKK, peptide start residue: 357) (UniProt Q8WY91)”, the log2 fold change is -0.209. The figure for “UniProt Q8TBZ8 (peptide sequence: AFISLPSFQR, peptide start residue: 233)” is 0.441. The value for “LEO1 (peptide sequence: LTSDEEGEPSGK, peptide start residue: 628) (UniProt Q8WVC0)” was -0.289. As for “UBE2Q2 (peptide sequence: FLASIFDKNHER, peptide start residue: 12) (UniProt Q8WVN8)”, the log2 fold change is 0.302.

As to “PARD3B (peptide sequence: LGTPLLVR, peptide start residue: 131) (UniProt Q8TEW8)”, the log2 fold change is -0.122. On to “DOCK2 (peptide sequence: VAVPIEDMQR, peptide start residue: 495) (UniProt Q92608)”, for which the log2 fold change was 0.59. With “SLC9A6 (peptide sequence: ELAFGDHELVIR, peptide start residue: 632) (UniProt Q92581)”, the log2 fold change was 0.00479.

“NT5C (peptide sequence: LLSWSDNWR, peptide start residue: 180) (UniProt Q8TCD5)”: the log2 fold change worked out at 0.177. In the case of “NEK9 (peptide sequence: LHGQLGHGDK, peptide start residue: 402) (UniProt Q8TD19)”, the log2 fold change was -0.552. Consider “C15orf40 (peptide sequence: GCVTIAIHAKPGSK, peptide start residue: 61) (UniProt Q8WUR7)”, for which the log2 fold change was -0.0665. The value for “SLC35F5 (peptide sequence: FHDLPSEKPESTNIDTEKTPK, peptide start residue: 170) (UniProt Q8WV83)” was -0.836. The figure for “LMO7 (peptide sequence: KEEREEIEK, peptide start residue: 760) (UniProt Q8WWI1)” is 0.251; for “UniProt Q8TAT5 (peptide sequence: TTNDITQPSSK, peptide start residue: 436)” it is 0.291; for “UniProt Q8TDB8 (peptide sequence: TFEDITR, peptide start residue: 457)” it is -0.0853. The value for “DUSP19 (peptide sequence: KIIETWK, peptide start residue: 30) (UniProt Q8WTR2)” was -0.0282; that for “UniProt Q8TE02 (peptide sequence: DSVEWEGR, peptide start residue: 32)” was 0.149; that for “UBLCP1 (peptide sequence: EYKVEILNPPREGK, peptide start residue: 124) (UniProt Q8WVY7)” was -0.669.

Take “DTX3L (peptide sequence: GICVICMDTISNKK, peptide start residue: 559) (UniProt Q8TDB6)”: the log2 fold change is -0.678. Take “BBX (peptide sequence: FNSLPQYSPVTFDRK, peptide start residue: 697) (UniProt Q8WY36)”: the log2 fold change worked out at 0.426. In the case of “UniProt Q8TF20 (peptide sequence: SFGWSTNLNEYKK, peptide start residue: 721)”, the log2 fold change is -0.177.

Turning to “CCHCR1 (peptide sequence: AQELEHSDSVK, peptide start residue: 350) (UniProt Q8TD31)”, the log2 fold change was -0.331.
